At least one structure is not confirmed: it was looked up by name or label, or the drawing left a doubt.
Test system: platelets
Experiment: Effect of inhibitors on anti-GPIIIa49-66 Ab-induced platelet particle formation / oxidative fragmentation
Format: cell-based, human
Conditions: inhibitor at 2 uM
Description: Induction of Platelet Particles. […] 1×10^7 gel-filtered platelets/ml were labelled with an anti-GPIIb-FITC monoclonal Ab (MoAb) (3B2) or an anti-GPIIIa-FITC MoAb (Ancell, Bayport, Minn.), 10 ug/ml for 30 min at 4° C., centrifuged at 1000 g×6 min at room temperature, and resuspended in Tyrodes buffer. […] (see below).
Debris and dead cells were excluded using scatter gates. Only cells with low orthogonal light scattering were included in the sorting gates. Gates were adjusted for control platelets by exclusion of other blood cells. Intact platelets were monitored in the right upper quadrant (RUQ) with the Y-axis measuring forward-scatter and the X-axis measuring fluorescence. A shift in the fluorescent particles from RUQ to LUQ reflected % platelet particle induction of 10,000 counted platelets/particles.
However, a recent report by Lerner and coworkers [19]provided evidence that Ab's in general are capable of inducing peroxide formation from an assortment of Ag's depending upon the tryptophan and cysteine composition and orientation. […] This hypothesis was tested with the use of diphenyleneiodonium (DPI), an inhibitor of NADH/NADPH oxidase, as well as other flavoprotein oxidases.

SMILES: COC[C@H]1OC(=O)c2coc3c2[C@@]1(C)C1=C(C3=O)[C@@H]2CCC(=O)[C@@]2(C)C[C@H]1OC(C)=O [Wortmannin]
- effect on Ab-induced platelet particle formation: unsuccessful

From US20070009529A1, “Agents that dissolve arterial thrombi” (New York University, priority 2002, published 2007)
